Assay [1] concerns the target full-length human PKCι (Homo sapiens, UniProt P41743). The assay can be described thus: PKCι IC50 IMAP fluorescence polarisation assay, full-length enzyme. The settings on record: read-out: IC50 in IMAP assay against full length PKCi; full length PKCi at 15 μM ATP. On the technique in general: Fluorescence polarisation rises when a labelled molecule tumbles more slowly, as on binding a larger partner.

By UniProt entry, the sequences of proteins in these tests, tags left out. Residues count along the entry.
UniProt P41743, whole entry: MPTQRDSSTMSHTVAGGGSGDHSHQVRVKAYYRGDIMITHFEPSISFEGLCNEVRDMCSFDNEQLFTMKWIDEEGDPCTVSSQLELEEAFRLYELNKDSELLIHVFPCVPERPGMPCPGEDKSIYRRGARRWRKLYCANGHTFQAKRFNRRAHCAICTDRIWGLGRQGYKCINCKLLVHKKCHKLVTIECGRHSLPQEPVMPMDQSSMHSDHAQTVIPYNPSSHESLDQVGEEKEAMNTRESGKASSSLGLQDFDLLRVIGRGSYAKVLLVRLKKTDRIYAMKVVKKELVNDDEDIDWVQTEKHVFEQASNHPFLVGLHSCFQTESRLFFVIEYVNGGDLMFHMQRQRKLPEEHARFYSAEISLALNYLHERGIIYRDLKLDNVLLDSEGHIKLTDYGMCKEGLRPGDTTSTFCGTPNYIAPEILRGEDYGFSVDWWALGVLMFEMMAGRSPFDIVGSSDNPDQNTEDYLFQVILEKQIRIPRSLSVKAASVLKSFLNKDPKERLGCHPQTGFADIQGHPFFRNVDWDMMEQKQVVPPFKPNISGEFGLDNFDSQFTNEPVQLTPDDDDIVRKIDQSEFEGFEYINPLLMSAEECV
UniProt P41743, 254-522 limits assumed: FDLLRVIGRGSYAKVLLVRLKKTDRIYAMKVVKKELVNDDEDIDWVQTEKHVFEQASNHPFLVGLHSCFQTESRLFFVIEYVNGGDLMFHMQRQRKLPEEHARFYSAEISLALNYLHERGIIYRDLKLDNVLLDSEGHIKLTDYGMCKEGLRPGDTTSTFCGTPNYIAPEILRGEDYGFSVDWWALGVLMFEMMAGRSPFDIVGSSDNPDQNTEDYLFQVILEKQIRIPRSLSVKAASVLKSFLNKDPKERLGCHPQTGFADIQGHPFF

Assay [2] concerns the target kinase-domain human PKCι (Homo sapiens, UniProt P41743). The experiment in a line: PKCι IC50 IMAP fluorescence polarisation assay, kinase-domain enzyme. The class given is biochemical. The settings on record: read-out: IC50 in IMAP assay against kinase domain PKCi (Activity); kinase domain PKCi at 2 μM ATP.

pIC50: −log10 of the molar value. Structures were worked out from names or drawings and are uncertain.

One may read the pIC50 as the negative decadic logarithm of the IC50, by convention in mol/L. Consider `CC(C)S(=O)(=O)c1cccc(Nc2cc(-c3nc(N[C@@H]4CCNC4)c4sccc4n3)ccn2)c1`, for which the pIC50 in assay [1] was 5.00 to 6.00.

In the case of `Cc1ccc(CN2CCN(c3nc(-c4ccncc4)nc4sc5c(c34)CCCC5)CC2)cc1`, the pIC50 in assay [2] was 4.40 to 5.00.
